Assay results reported in patent US4956367A, “2-amino-4-morpholino-6-propyl-1,3,5-triazines” (U C B S.A., priority 1988, dated 1990).
At least one read-out could not be matched to a standard name with certainty.

How the values were obtained:
[1] = system: learning of the avoidance reflex; experiment: Multiple-trial passive avoidance: learning; type: in vivo, male Sprague-Dawley rats; conditions: rats, i.p. 30 minutes before test, criterion 180 seconds on mat; dose (mg/kg) / group 1 saline control trials: 1: 5.35/2.27; 7: 29.54/2.67; 9: 8.72/2.27; 10: 28.14/2.87; 20: 2.66/1.93; 21a: 2.65/1.60; 22: 3.64/2.20; 25a: 0.89/2.07; 27: 3.78/2.20; 37: 9.6/2.0; 41: 9.12/2.53; physostigmine: 0.4/2.60
[2] = system: amnesia induced by scopolamine; experiment: Multiple-trial passive avoidance: mnemic retention, amnesia induced by scopolamine; type: in vivo, male Sprague-Dawley rats; conditions: rats, i.p. with 0.5 mg scopolamine
Description: 4. Multiple-trial passive avoidance. The compounds of the present invention have been studied with the aim of
Columns 3 and 4 show the results obtained in the test used to evaluate the learning. The figures indicate the average number of trials needed for a control animal (group 1) or an animal treated (group 2) with the compound to learn to remain on the rubber mat for 180 seconds in order to avoid the electric shock. The results were analyzed by the Student test.

Compound: CNC(=O)Oc1ccc2c(c1)[C@]1(C)CCN(C)[C@@H]1N2C [physostigmine, reference compound]
- Learning, average number of trials, group 2 (treated) [1]: 2.30 trials
- Mnemic retention, period of remaining on the mat, group 4, 4 hours ([2]; 4 hours, dose (mg/kg) / group 3 (scopolamine only): 1: 5.35/13.3, 7: 29.54/1.5, 9: 8.72/2.3, 10: 28.14/4.5, 20: 2.66/2.5, 21a: 2.65/9.7, 22: 3.64/11.1, 25a: 0.89/3.0, 27: 3.78/8.9, 37: 9.6/2.5, 41: 9.12/3.7, physostigmine: 0.4/1.4): 17.8 s
- Mnemic retention, period of remaining on the mat, group 4, 24 hours ([2]; 24 hours, dose (mg/kg) / group 3 (scopolamine only): 1: 5.35/24.2, 7: 29.54/3.3, 9: 8.72/3.3, 10: 28.14/2.3, 20: 2.66/4.6, 21a: 2.65/9.1, 22: 3.64/20.3, 25a: 0.89/7.7, 27: 3.78/31.6, 37: 9.6/4.5, 41: 9.12/7.0, physostigmine: 0.4/6.9): 56.2 s
- Mnemic retention, period of remaining on the mat, group 4, 28 hours ([2]; 28 hours, dose (mg/kg) / group 3 (scopolamine only): 1: 5.35/26.3, 7: 29.54/4.0, 9: 8.72/5.7, 10: 28.14/4.5, 20: 2.66/5.5, 21a: 2.65/33.9, 22: 3.64/12.8, 25a: 0.89/3.3, 27: 3.78/54.1, 37: 9.6/5.8, 41: 9.12/7.7, physostigmine: 0.4/21.3): 53.4 s
